# Measured values published in doi:10.1101/2022.05.24.493195 (bioRxiv, 2022).
# Sequences of proteins named here, by UniProt entry; tags and fusion partners are left off. Residues count along the entry.
# UniProt Q96GD4, 55-344: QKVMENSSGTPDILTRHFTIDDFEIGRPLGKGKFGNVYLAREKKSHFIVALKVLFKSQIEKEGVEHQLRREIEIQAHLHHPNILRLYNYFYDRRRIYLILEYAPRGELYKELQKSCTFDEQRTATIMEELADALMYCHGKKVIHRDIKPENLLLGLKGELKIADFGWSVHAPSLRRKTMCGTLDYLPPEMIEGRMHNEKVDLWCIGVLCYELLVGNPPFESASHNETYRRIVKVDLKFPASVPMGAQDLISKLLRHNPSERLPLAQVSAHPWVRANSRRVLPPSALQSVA
# UniProt Q9NQS7, 835-903: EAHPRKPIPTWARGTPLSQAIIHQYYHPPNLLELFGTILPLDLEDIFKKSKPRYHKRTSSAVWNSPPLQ
# No constants are given. Whether binding was seen depends on the method and setting. Some binding calls cover weakened binding; strength is not graded here.
# Target: truncated Aurora B (55-344) (UniProt Q96GD4)
# Test: SEC
substance,measurement,value
C-terminus of INCENP (835-903) (from UniProt Q9NQS7 835-903) (domain or fragment),binding,binds
